For at least one compound, name, drawing or mass did not settle the structure.
Experiments:
tubulin [1] = assay: inhibition of [3H]colchicine binding to tubulin; details: 100 μM inhibitor, 1.0 μM tubulin, 2 μM [3H]colchicine, 10 min at 37° C.; ± S.D.
Method: Incubation was for 10 min. at 37° C.
Incubation was for 10 mi. at 37° C. Average values obtained in three independent experiments are presented in the table, except for 2-methoxyestrone, which was only examined twice. S.D., standard deviation.

tubulin [2] = assay: inhibition of tubulin polymerization in vitro (turbidity at 350 nm); assay type: biochemical; details: read-out: IC50 (concentration required to inhibit tubulin polymerization by 50%); mean ± S.D.; method of Example 1
Method: Anti-mitotic activity can be evaluated by testing the ability of an estradiol derivative to inhibit tubulin polymerization and microtubule assembly in vitro. Microtubule assembly is followed in a Gilford recording spectrophotometer (model 250 or 2400S) equipped with electronic temperature controllers. A reaction mixture (all concentrations refer to a final reaction volume of […]) contains 1.0 M monosodium glutamate (ph 6.6), 1. omg/ml (10 μM) tubulin, 1.0 mM MgCl2, 4% (v/v) dimethylsulfoxide and 20-75μM of a composition to be tested. The 0.24 ml reaction mixtures are incubated for 15 min. at 37° C. and then chilled on ice. After addition of 10p1 2.5mM GTP, the reaction mixture is transferred to a cuvette at 0° C., and a baseline established. At time zero, the temperature controller of the spectrophotometer is set at 37° C. Microtubule assembly is evaluated by increased turbity at 350 nm.
A. Each reaction mixture (all concentrations refer to the final reaction volume of 0.25 ml) contained 1.0 M monosodium glutamate (pH 6.6), 1.0 mg/ml (10 μM) tubulin, 1.0 mM MgCl2, 4% (v/v) dimethylsulfoxide, and either 0 (curve 1), 20μM (curve 2), 40 μM (curve 3), or 75 μM (curve 4) 2-methoxyestradiol. The 0.24 ml reaction mixtures were incubated for 15 min. at 37° C and chilled on ice. […]

## C[C@]12CC[C@@H]3c4ccc(O)cc4CC[C@H]3[C@@H]1CC[C@@H]2O [Estradiol]
Tubulin [1]
  Percentage Inhibition of colchicine binding to tubulin: 38 ± 4%
Tubulin [2]
  IC50: 30 ± 6 µM

## C[C@]12CC[C@@H]3c4ccc(O)cc4CC[C@H]3[C@@H]1CCC2=O [Estrone]
Tubulin [2]
  IC50: > 40 µM
